The text below walks through data of PubChem BioAssay AID1508600 (Functional Genomics Laboratory (NCATS/FGL), 2020).

The whole screen tested about 53,000 sequences, of which about 3,700 (7%) were called active.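 The calls were made as follows: active = gene knockdowns whose robust z-score for IL-1 alpha signal is at least 2 or at most -2, so actives lie on both sides; inactive = the rest.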 The list shows a part of the results.

A short description of this assay: Components of the Cytosolic LPS Sensing Pathway: Gene Identification via Genome-wide siRNA Screen.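 Also: robust z of the log signal after scaling to non-targeting control siRNA wells of the plate.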 The settings on record: RAW264.7 macrophages, IL-1a HTRF, actives lie on both sides, screened at 100 nM (by protocol), cells primed 5 h with Pam3CSK4 first. The method in brief:
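RAW264.7 mouse macrophages reverse-transfected with single siRNAs (100 nM final) for 48h, primed with Pam3CSK4 for 5 hours, then transfected with LipidA for 24 hour. Supernatant IL-1a read by HTRF; values normalized to negative-control median, log-transformed robust z-scores.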
(TR-FRET usually uses a lanthanide donor and a delayed reading to cut background.)
For GCCAAACAUGGAGAGAGCATT against Hid1, the z-score was inactive: -0.319.
To GGACCCUGACAUCAUUGUGTT against Plekhh3 belongs inactive: 0.237; to CAGCAUGAUGAUGGAGACCTT against Sox1, inactive: 0.708; to CCAUCAUUGCUCGUAUUGGTT against Olfr656, active: -2.9.
Take CCUUAGAUUCACUCAGCACTT against Dbpht2: the z-score was inactive: -0.492.
To GCAUGAGAAGAUUUAUAGGTT against Stac belongs inactive: 0.397; to GGAUCAGUGACUGAUCUUGTT against Myo3a, inactive: 0.279; to GGAGAGAUGGUAUUGUUGGTT against Olfr1298, inactive: -0.0094.
CCUAUUAUCUACCUUACAATT against Enpp5: the z-score was inactive: 1.13.
Turning to GGACAAGAAUAAGUACAACTT against Rpl5, the z-score was inactive: -0.918.
To “GCUCCCAUUAUCAUUCAAATT against D3Ertd751e” belongs inactive: 1.67.
In the case of GGAGAAGUGAUUAAAAUCATT against Themis, the z-score was inactive: 0.535.
To GGUUACAGCUUUAAGGUAATT against Ercc3 belongs inactive: -0.817; to CCUGGAAUCUGUCCCUCAUTT against Olfr262, inactive: -0.161.
On to CGCCAUGUUUAACAAAUUGTT against Limk2, for which the z-score was active: -2.22.
Turning to GGCUCUGUUCUCCACAUUGTT against Phf5a, the z-score is inactive: -1.6.
To GGACCUUCGGAAUGACGAGTT against Rhoa belongs inactive: 1.02.
For CGAGGACUCAAUAGUAGCCTT against Proser3, the z-score is inactive: -0.678.
Turning to GCAUACCGGAUAAACUGAATT against Apoc1, the z-score was inactive: -0.916.
Regarding GGAGCCCUAUACAGGGUUUTT against Trarg1, the z-score was inactive: 0.353.
On to GGCAGAAGAUUGCUUCAGATT against Pm20d2, for which the z-score is inactive: -0.229.
For GGUCCUCCAAUGGAACAAGTT against Rhd, the z-score is inactive: -0.0946.
To GGUCCACCUUCUUACUUUATT against Emc7 belongs inactive: 0.578; to GCAGCUAAAACAAGUUUGATT against Sntg2, inactive: -0.565; to GGUGACAAGGAGAAAGAUGTT against Rnf151, inactive: -1.58.
To GGUAGAAGAAUGCAUAAUGTT against Sema3e belongs inactive: 0.82; to GGAUUCUGAAGAAAACGGGTT against Ibsp, inactive: 0.195; to GGGCCUAUGUGCUUUAUAUTT against Usp8, inactive: -0.0584.
To GGAGCACUUUAAGUUAUACTT against Rnf225 belongs inactive: 1.73.
For the sequence GCAAGAACGCAAGAUUCAATT against Acoxl, the z-score is inactive: 0.581.
As for GGAAAGACAGAAUAAUCCATT against Sparc, the z-score is inactive: 1.03.
In the case of CCAAACAGAGCCAUUCUAATT against Hykk, the z-score is inactive: 0.916.
In the case of CGUAUUGGUGGGAGAAAGATT against Parva, the z-score is inactive: -0.105.
With CCCUAAGUCCGUUAAUGUUTT against Wdhd1, the z-score is inactive: 0.0708.
Regarding “CCUAAACUACAGGAAUUUATT against D830014E11Rik”, the z-score is inactive: -0.0293.
Regarding GGAAUUCUCUUAGUCCCUCTT against Vmn1r32, the z-score is inactive: -0.603.
As to GCCUUCUUCUACCAUAGCATT against Thyn1, the z-score is inactive: -1.64.
For the sequence GGGACCAGAACAAAUACAATT against Klc3, the z-score is active: 4.06.
To GGUUCUACCUCAAGAUGUUTT against Srd5a2 belongs inactive: 0.0188.
Turning to GGCGUGAUAGCUGGACUUATT against Eola1, the z-score is inactive: 0.439.
Regarding GGCCCACAGGAACAUCCUATT against Zbtb8b, the z-score was inactive: -0.134.
To CCAUUCGAUACCUCGUGCATT against Dhps belongs inactive: -0.249; to GGUGAAUGCUUGUCUGCACTT against Sapcd1, inactive: -0.624.
To GGAUCUUGGAUAAAGUGUGTT against Gpr180 belongs inactive: 1.73; to CCCACAGUUCUGAAGGGAGTT against Olfr1215, inactive: -0.518.
For CGAUUUUCCUCAAUAUCUCTT against Pcdhgc4, the z-score was inactive: -0.246.
To GGAAUUCUUCAGGUGGAUATT against Ginm1 belongs inactive: 0.128; to CGAAGACGUAAUUACGAAATT against Pla2g4d, inactive: -0.781; to GGAGGAACAUAUGCUCAGATT against Lce1e, active: -2.99.
With GGACAUGGUACCACAGGAGTT against Tenm4, the z-score was inactive: 0.643.
For GGUUCUUUUGAGCUUUAUGTT against Oscp1, the z-score is inactive: 0.263.
In the case of GGCUAAUAGACUUAUUAGGTT against Cdip1, the z-score is inactive: 0.45.
As to CCAAUGAUGAAUCCCUUCATT against Olfr781, the z-score is inactive: 0.294.
As to GGACUUCUAGAGAAGAAGCTT against Gpn2, the z-score was inactive: 0.0803.
Consider CGCCCAUCUACGUUUUUACTT against Neil1, for which the z-score is inactive: 0.638.
To GCUCAUUCCAGCAGUAAUGTT against Taf6 belongs inactive: -1.26.
To “GGCAAUAGAAACUUUUGGUTT against Vmn1r-ps103” belongs inactive: -0.0332; to GGAGGCUUCUAUUGCCAUATT against Olfr380, inactive: -0.572; to GCGGUCACACCAAAAGUCATT against Olfr1466, inactive: -1.56.
To GCGAACCAAACUUGCAUAUTT against Znrf2 belongs inactive: 1.19; to GGUACAAAUGCAUUGAGAGTT against Fcamr, inactive: -1.3; to GGUGCAUUUUGUCUAUGAUTT against Lamp5, active: -2.04.
Regarding CCAAGUGCUCAGCUAAACUTT against Zscan4c, the z-score is inactive: -1.11.
With GGAGUUCAAGUAUACGUGUTT against Clic3, the z-score was inactive: -0.0472.
To GGUUCCAUUCUUGUCACCCTT against Lifr belongs inactive: -1.53; to “GGCAUCGAUGAACUCUACUTT against A730013G03Rik”, inactive: 0.772; to GCUACUCAUUUAGCAGAGATT against Olfr76, inactive: -0.887.
To GGCAUUGACUAUGAGAUAGTT against Gstz1 belongs inactive: -0.914; to GGAUCCGUAUUCAGAUUUATT against Nrk, inactive: 0.941.
With GCCUUUGCGUUAUGCUACUTT against Olfr610, the z-score is inactive: -0.321.
Consider CGUUUUCACAUUCGGUGGATT against Alpl, for which the z-score was inactive: 0.466.
To “CGGUGAAAAACCUAUGUAUTT against 1700028P14Rik” belongs inactive: 0.115; to GGGAAAGUCGAGCUUUUUCTT against Ifi44l, inactive: 0.0658; to GUGCUAUUCAUGCACAGCATT against Psca, inactive: 0.0658.
With GGUUUGAGCAACUAACUAATT against Lhx2, the z-score is inactive: -0.0483.
To GGAUCAAAUGUGGCAUAUUTT against Rassf5 belongs inactive: 0.597.
To CCAAUGAGAGUUCUAUGAUTT against Cxxc4 belongs inactive: -0.192; to GCGGACUGUUUUGAUACAUTT against Mtpap, inactive: 0.519.
Regarding GGGAAAAACACUUCUCACUTT against Slc35e2, the z-score was inactive: -0.238.
To GGACUGAACUAACAGGAAGTT against Klrb1f belongs inactive: 0.415; to GGAGGUUAACAGCUGCCAATT against Rnaset2b, inactive: -0.223.
To “GGCCCUUACAGAGUCUGGATT against B930095G15Rik” belongs inactive: 0.833; to GGACUUCUUCAGAAACAGCTT against Gtf2a1l, inactive: 0.273; to GGCAUCAUACUGAUUGGUGTT against Suclg1, inactive: -0.496.
To GGUCCUCAUUUAUUGAAAUTT against Cdkn1b belongs inactive: -0.241.
Consider GGCUUCCUGAUGGAUUUAUTT against Stk11ip, for which the z-score was inactive: 1.02.
To GCAGCCUCAACAACAACCCTT against Rnf145 belongs inactive: 0.0473; to GGCACUGCAUAUUUGGUAUTT against Dmrtc2, inactive: 0.478; to GGUAAUCAGUAGUGACUUATT against Mkln1, inactive: 0.229.
To GGAGCCUCAGGUCCAAAUGTT against Fancd2os belongs inactive: 1.89; to GCCCUCUUGUGAUUAAGCATT against Esr1, inactive: -0.959.
As to CCAUCAGCCUUUAUAAACUTT against Ywhah, the z-score is inactive: -0.496.
To CCUAUAUUACACGUCAUUUTT against Trim30a belongs inactive: -0.178; to GCUAGUCUAGCCAUUGUCATT against Lamp3, inactive: 0.469.
To GGCAGAUGGUAUCAGCUGUTT against Cd248 belongs inactive: -1.11; to GCUGACUCAUCCAAGAACUTT against Dmkn, inactive: 0.276; to GGACGAGUGCCUGUUUUCATT against Med8, active: 4.09.
To CCUAAACUGCUUGCUGAUATT against Olfr1204 belongs inactive: 1.13; to GGAAGGUGGAGUUUGAAAGTT against Rpap2, inactive: 0.2.
With GGUGAUAUCUUUCCAUCUUTT against Wiz, the z-score is inactive: -0.176.
To GCCUGUUUAGAGCGUAAACTT against Numb belongs inactive: 0.561; to GCGAGAGACAACUGACUAATT against Zcchc13, inactive: -0.798.
Consider GGAAGGUCAAAGUCCUUUATT against Pitpnm2, for which the z-score is inactive: -0.685.
Regarding GGCUACAAUAAUGUUUCCCTT against Pglyrp3, the z-score is inactive: 1.7.
To GGCUUCCACAAAGAAAGACTT against Tsga8 belongs inactive: -0.82.
Consider GCCAGAUGGUAGGCGAUUATT against Mamstr, for which the z-score was inactive: -0.637.
